Experimental data taken from PMC6629125, “Lysyl oxidase–like 2 (LOXL2)–mediated cross-linking of tropoelastin” (The FASEB Journal, 2019).
These are yes or no findings as the source states them, for the method shown.

Target: T1, full-length lysyl oxidase-like 2 (FL-LOXL2), recombinant human (human), Q9Y4K0
T1 chain: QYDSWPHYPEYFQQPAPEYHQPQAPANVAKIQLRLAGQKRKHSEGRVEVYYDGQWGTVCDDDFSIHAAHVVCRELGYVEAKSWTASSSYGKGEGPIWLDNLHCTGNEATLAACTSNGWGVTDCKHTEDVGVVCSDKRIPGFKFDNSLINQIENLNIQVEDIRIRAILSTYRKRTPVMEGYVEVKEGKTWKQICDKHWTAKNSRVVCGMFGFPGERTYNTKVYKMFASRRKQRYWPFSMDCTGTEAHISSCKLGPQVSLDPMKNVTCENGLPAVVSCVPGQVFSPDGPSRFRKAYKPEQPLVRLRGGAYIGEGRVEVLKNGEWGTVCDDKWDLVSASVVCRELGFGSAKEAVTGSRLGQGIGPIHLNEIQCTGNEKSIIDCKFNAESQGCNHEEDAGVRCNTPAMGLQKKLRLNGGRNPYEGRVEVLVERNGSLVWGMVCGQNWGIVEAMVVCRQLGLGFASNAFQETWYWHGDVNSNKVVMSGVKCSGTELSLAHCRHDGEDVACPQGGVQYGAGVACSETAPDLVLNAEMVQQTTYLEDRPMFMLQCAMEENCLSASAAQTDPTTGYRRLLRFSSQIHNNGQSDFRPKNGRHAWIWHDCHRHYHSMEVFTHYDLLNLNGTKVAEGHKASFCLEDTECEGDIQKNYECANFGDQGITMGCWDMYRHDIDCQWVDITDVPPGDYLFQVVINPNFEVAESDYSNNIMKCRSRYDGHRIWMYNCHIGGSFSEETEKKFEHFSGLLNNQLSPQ
Assay: negative-stain EM single-particle analysis; FL-LOXL2 at 10 µg/ml on carbon-coated grids, 4% uranyl acetate; about 10,000 particles; 3D reconstruction at 22 Å; both purified
Conditions: remark: other sources report otherwise

B1: full-length lysyl oxidase-like 2 (FL-LOXL2), recombinant human, Q9Y4K0 26-774 (enzyme)
chain: QYDSWPHYPEYFQQPAPEYHQPQAPANVAKIQLRLAGQKRKHSEGRVEVYYDGQWGTVCDDDFSIHAAHVVCRELGYVEAKSWTASSSYGKGEGPIWLDNLHCTGNEATLAACTSNGWGVTDCKHTEDVGVVCSDKRIPGFKFDNSLINQIENLNIQVEDIRIRAILSTYRKRTPVMEGYVEVKEGKTWKQICDKHWTAKNSRVVCGMFGFPGERTYNTKVYKMFASRRKQRYWPFSMDCTGTEAHISSCKLGPQVSLDPMKNVTCENGLPAVVSCVPGQVFSPDGPSRFRKAYKPEQPLVRLRGGAYIGEGRVEVLKNGEWGTVCDDKWDLVSASVVCRELGFGSAKEAVTGSRLGQGIGPIHLNEIQCTGNEKSIIDCKFNAESQGCNHEEDAGVRCNTPAMGLQKKLRLNGGRNPYEGRVEVLVERNGSLVWGMVCGQNWGIVEAMVVCRQLGLGFASNAFQETWYWHGDVNSNKVVMSGVKCSGTELSLAHCRHDGEDVACPQGGVQYGAGVACSETAPDLVLNAEMVQQTTYLEDRPMFMLQCAMEENCLSASAAQTDPTTGYRRLLRFSSQIHNNGQSDFRPKNGRHAWIWHDCHRHYHSMEVFTHYDLLNLNGTKVAEGHKASFCLEDTECEGDIQKNYECANFGDQGITMGCWDMYRHDIDCQWVDITDVPPGDYLFQVVINPNFEVAESDYSNNIMKCRSRYDGHRIWMYNCHIGGSFSEETEKKFEHFSGLLNNQLSPQ
- binding: no binding (tested: 10 µg/ml)
